From the supplement of paper PMC12067093, “Discovery and optimisation of a covalent ligand for TRIM25 and its application to targeted protein ubiquitination” (Chemical Science, 2025)
Some of the results follow.

Chains of the proteins cited; added tags and fusions are not shown. Lines headed by an entry give the natural chain unless they say otherwise; changes in a name come on top.
UniProt Q658Y4: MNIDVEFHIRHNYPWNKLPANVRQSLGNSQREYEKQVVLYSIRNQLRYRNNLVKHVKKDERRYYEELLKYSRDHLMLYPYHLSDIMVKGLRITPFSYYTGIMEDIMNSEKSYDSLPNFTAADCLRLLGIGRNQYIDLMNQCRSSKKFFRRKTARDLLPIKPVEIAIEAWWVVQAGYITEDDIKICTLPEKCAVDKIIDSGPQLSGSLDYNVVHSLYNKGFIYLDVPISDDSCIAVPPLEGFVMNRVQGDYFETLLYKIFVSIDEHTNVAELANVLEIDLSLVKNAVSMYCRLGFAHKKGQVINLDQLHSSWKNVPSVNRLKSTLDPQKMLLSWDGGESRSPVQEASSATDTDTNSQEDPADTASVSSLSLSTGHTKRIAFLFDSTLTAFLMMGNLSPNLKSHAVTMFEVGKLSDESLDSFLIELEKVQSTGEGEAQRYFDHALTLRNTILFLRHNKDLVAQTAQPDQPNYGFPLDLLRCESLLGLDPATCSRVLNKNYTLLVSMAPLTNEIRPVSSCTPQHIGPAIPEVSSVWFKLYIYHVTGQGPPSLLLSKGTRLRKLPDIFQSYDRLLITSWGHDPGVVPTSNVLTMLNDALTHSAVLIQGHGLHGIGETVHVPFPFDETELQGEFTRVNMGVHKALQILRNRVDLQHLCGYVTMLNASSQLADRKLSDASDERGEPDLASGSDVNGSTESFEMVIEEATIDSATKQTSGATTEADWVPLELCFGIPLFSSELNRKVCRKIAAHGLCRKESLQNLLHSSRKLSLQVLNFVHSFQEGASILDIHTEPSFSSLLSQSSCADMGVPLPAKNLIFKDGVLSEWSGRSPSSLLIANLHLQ
UniProt P22570: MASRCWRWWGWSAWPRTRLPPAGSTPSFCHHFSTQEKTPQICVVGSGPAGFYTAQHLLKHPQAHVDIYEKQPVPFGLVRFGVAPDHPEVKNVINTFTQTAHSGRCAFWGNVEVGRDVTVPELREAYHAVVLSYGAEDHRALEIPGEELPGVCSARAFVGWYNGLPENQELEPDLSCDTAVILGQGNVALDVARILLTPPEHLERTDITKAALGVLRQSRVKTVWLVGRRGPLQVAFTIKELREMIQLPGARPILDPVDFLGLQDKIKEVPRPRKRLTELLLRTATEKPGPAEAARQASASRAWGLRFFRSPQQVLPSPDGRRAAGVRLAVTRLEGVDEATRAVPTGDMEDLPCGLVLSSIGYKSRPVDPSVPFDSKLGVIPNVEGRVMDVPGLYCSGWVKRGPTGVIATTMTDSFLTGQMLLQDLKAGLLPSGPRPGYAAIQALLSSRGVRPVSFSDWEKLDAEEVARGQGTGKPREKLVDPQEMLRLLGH
UniProt Q9NXK8: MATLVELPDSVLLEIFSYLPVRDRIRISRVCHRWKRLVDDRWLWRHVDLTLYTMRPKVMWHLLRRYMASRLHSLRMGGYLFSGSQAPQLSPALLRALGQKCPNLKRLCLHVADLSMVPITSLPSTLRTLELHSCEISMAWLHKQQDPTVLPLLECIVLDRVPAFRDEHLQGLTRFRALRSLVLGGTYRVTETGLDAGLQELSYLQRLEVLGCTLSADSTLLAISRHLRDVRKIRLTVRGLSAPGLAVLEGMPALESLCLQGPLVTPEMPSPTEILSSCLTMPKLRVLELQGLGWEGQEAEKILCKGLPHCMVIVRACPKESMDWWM
UniProt P49327, whole entry, looked up: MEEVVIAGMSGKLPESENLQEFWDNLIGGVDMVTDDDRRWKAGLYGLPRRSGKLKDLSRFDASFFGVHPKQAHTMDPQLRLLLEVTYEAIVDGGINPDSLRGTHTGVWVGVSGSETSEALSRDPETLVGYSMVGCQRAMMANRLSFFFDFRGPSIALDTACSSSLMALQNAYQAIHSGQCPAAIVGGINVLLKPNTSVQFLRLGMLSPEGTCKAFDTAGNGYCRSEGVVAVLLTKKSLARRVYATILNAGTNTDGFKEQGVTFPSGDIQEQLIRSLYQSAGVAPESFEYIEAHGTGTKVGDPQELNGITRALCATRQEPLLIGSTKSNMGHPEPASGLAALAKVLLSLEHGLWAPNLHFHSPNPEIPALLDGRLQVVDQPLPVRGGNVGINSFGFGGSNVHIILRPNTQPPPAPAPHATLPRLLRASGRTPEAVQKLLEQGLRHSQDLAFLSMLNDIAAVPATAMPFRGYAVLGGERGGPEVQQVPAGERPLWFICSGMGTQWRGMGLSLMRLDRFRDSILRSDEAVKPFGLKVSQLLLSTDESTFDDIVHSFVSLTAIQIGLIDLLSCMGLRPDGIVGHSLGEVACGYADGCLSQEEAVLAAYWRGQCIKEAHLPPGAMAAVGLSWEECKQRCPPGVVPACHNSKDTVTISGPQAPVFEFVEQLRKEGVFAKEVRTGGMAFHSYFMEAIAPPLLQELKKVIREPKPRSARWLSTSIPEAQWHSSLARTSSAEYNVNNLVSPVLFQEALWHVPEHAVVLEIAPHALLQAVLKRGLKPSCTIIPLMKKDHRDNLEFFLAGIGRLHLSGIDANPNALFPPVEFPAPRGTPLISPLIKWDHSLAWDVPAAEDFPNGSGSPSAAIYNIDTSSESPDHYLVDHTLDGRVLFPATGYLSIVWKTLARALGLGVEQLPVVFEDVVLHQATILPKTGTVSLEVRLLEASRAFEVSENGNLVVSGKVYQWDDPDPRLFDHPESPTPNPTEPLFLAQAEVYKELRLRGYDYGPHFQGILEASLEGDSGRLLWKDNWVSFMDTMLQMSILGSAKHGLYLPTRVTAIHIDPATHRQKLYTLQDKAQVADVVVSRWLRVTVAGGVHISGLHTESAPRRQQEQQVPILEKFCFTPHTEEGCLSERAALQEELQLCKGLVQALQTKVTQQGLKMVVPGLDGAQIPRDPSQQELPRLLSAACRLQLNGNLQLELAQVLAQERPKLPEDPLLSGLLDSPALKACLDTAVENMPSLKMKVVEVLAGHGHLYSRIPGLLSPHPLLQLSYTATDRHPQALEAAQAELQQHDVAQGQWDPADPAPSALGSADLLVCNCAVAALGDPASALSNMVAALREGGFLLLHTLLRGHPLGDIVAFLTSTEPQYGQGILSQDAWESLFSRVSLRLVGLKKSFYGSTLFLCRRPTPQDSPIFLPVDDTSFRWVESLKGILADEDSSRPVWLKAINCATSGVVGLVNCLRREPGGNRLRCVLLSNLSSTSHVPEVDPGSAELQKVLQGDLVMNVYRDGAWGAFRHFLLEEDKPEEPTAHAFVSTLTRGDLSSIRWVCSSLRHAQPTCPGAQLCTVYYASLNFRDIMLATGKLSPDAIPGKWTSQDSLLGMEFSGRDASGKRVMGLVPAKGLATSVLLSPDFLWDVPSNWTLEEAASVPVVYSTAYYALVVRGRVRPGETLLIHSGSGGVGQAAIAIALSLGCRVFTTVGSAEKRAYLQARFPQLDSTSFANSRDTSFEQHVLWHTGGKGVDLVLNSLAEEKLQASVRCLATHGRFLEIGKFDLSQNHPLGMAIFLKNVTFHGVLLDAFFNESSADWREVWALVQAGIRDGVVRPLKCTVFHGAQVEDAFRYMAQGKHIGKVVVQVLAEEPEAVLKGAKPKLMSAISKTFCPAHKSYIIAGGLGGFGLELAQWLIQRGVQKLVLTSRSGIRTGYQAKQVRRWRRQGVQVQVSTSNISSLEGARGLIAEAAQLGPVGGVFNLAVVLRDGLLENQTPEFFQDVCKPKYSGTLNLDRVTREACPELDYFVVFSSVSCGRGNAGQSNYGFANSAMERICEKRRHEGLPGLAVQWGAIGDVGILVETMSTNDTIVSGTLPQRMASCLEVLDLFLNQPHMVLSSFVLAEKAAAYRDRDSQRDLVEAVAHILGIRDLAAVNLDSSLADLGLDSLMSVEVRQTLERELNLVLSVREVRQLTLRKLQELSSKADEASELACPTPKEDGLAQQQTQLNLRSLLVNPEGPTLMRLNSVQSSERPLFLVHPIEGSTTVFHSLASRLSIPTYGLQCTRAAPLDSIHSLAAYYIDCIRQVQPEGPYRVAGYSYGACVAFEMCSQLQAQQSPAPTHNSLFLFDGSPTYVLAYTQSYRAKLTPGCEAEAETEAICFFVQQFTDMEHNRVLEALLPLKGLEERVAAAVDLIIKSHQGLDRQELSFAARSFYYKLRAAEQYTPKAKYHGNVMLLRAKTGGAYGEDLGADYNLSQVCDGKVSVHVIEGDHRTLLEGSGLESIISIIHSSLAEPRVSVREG
UniProt Q6P4F2: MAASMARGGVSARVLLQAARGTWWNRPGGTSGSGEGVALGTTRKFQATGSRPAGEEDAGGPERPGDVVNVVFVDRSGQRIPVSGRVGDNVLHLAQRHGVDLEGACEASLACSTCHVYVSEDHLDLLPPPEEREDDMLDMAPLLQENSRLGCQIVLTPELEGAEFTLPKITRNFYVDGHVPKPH
UniProt Q9UK61: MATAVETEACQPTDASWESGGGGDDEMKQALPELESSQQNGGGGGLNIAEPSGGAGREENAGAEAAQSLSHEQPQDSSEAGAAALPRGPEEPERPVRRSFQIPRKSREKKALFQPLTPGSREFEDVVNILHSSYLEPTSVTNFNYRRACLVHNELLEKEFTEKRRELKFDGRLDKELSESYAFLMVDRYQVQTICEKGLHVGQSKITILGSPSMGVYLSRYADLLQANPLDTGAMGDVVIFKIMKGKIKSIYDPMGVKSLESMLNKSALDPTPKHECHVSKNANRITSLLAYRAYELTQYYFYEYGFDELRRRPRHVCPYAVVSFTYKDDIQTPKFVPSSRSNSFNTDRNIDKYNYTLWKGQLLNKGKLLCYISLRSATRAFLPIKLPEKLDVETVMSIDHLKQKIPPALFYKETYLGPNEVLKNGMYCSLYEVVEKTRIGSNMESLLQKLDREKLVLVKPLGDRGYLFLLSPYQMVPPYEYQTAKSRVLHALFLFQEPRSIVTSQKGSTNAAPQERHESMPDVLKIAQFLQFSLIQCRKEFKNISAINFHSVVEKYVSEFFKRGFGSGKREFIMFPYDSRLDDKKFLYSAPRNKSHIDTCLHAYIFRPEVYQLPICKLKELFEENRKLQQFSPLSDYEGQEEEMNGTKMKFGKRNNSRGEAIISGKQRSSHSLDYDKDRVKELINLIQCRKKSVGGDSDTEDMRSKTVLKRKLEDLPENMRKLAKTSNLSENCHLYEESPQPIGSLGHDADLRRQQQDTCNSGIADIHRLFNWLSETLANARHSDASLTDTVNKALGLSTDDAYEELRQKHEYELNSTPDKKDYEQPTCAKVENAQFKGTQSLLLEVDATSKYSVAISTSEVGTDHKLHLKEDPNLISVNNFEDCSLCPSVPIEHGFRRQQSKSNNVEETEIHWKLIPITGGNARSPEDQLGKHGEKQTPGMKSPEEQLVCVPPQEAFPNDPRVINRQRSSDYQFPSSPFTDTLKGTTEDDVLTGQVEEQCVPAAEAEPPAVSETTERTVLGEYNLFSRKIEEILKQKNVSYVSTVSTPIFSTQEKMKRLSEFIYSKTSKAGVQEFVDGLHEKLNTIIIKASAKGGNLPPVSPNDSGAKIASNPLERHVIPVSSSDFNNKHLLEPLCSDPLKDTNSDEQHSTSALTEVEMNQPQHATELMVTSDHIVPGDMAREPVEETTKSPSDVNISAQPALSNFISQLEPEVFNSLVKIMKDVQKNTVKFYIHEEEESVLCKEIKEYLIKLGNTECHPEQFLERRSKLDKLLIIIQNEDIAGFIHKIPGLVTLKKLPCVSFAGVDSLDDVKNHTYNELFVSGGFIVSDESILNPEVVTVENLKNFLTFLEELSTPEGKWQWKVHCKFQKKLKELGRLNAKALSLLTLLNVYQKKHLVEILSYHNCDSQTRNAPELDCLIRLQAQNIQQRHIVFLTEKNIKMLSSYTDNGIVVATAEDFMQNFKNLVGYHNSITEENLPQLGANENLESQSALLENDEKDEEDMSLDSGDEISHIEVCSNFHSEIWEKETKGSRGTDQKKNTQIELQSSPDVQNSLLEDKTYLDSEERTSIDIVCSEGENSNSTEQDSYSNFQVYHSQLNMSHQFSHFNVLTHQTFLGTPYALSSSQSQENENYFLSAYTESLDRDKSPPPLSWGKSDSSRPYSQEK
UniProt Q96IG2: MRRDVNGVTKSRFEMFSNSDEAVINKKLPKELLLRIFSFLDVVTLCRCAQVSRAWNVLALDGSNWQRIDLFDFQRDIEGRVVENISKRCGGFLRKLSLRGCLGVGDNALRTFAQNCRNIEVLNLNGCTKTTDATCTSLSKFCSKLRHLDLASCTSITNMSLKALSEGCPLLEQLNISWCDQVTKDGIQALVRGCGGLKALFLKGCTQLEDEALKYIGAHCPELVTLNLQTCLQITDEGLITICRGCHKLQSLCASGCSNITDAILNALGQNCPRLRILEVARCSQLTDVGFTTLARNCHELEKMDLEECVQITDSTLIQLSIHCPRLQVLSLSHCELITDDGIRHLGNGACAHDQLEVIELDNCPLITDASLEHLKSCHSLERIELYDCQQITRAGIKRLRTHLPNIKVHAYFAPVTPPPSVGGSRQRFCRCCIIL

Compound: CC1Cc2ccccc2N1C(=O)C1CCCN(C1)C(=O)CCl (mixture of isomers) [TRIM25 ligand 11 (diastereomer mixture)]
Assay: probe-labelled cysteine peptide fold change vs DMSO (competition) (log2 fold change); higher = less target engagement (more negative = stronger competition)
Conditions: THP-1, incubation time: 4 h
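Also: competitive chemoproteomic profiling in live THP-1 cells with an iodoacetamide desthiobiotin (IA-DTB) probe, comparing probe-labelled peptide intensities in compound-treated cells against DMSO-treated controls.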

Row | Target | probe-labelled cysteine peptide fold change (10 µM) | probe-labelled cysteine peptide fold change (50 µM)
1 | FAM91A1_Q658Y4_750_IAAHGLCR (UniProt Q658Y4) | 0.025 | 0.13
2 | FDXR_P22570_42_TPQICVVGSGPAGFYTAQHLLK (UniProt P22570) | -0.14 | 0.136
3 | FAR2_Q96K12_158_LEAFIHISTAYSNCNLK (UniProt Q96K12) | 0.048 | 0.0444
4 | FBXL12_Q9NXK8_310_GLPHCMVIVR (UniProt Q9NXK8) | -0.133 | -0.0991
5 | FASN_P49327_2010+2024_EACPELDYFVVFSSVSCGR (UniProt P49327) | 0.54 | 0.245
6 | FCHSD1_Q86WN1_471_ALPCPAHVVFR (UniProt Q86WN1) | -0.0327 | 0.0485
7 | FDX2_Q6P4F2_154_LGCQIVLTPELEGAEFTLPK (UniProt Q6P4F2) | -0.122 | -0.364
8 | FANCD2_Q9BXW9_310_LDLQHCVLPSR (UniProt Q9BXW9) | -0.0442 | -0.0094
9 | FASN_P49327_1558+1564_HAQPTCPGAQLCTVYYASLNFR (UniProt P49327) | 0.0665 | -0.3
10 | FASN_P49327_779_GLKPSCTIIPLMK (UniProt P49327) | -0.191 | -0.232
11 | FBXO30_Q8TB52_10_MEEELQHSHCVNCVSR (UniProt Q8TB52) | -0.0797 | -0.251
12 | FAM91A1_Q658Y4_232_GFIYLDVPISDDSCIAVPPLEGFVMNR (UniProt Q658Y4) | 0.0936 | -0.0981
13 | FAM208A_Q9UK61_734_TSNLSENCHLYEESPQPIGSLGHDADLRR (UniProt Q9UK61) | 0.0803 | -0.0546
14 | FEM1A_Q9BSK4_190_GNTALHDCAESGSLEILQLLLGCK (UniProt Q9BSK4) | 0.0659 | -0.104
15 | FANCI_Q9NVI1_650_LEACILTQGDK (UniProt Q9NVI1) | 0.264 | 0.0585
16 | FARSB_Q9NSD9_548_CAEIFAR (UniProt Q9NSD9) | 5.21e-05 | -0.0374
17 | FBXL20_Q96IG2_179_ALSEGCPLLEQLNISWCDQVTK (UniProt Q96IG2) | 0.0297 | -0.00366
18 | FAM136A_Q96C01_82_CTMHCNDK (UniProt Q96C01) | -0.196 | 0.0556
19 | FEN1_P39748_141_QHNDECK (UniProt P39748) | -0.134 | -0.124
20 | FASN_P49327_2292_AAPLDSIHSLAAYYIDCIR (UniProt P49327) | 0.0728 | 0.023
21 | FAM98B_Q52LJ0_216+220_INDALSCEYECR (UniProt Q52LJ0) | -0.033 | -0.0928

3 records picked at random from the list so far, as already listed:
Row | Target | probe-labelled cysteine peptide fold change (10 µM) | probe-labelled cysteine peptide fold change (50 µM)
10 | FASN_P49327_779_GLKPSCTIIPLMK (UniProt P49327) | -0.191 | -0.232
7 | FDX2_Q6P4F2_154_LGCQIVLTPELEGAEFTLPK (UniProt Q6P4F2) | -0.122 | -0.364
13 | FAM208A_Q9UK61_734_TSNLSENCHLYEESPQPIGSLGHDADLRR (UniProt Q9UK61) | 0.0803 | -0.0546

Additional records follow:

Row | Target | probe-labelled cysteine peptide fold change (10 µM) | probe-labelled cysteine peptide fold change (50 µM)
22 | FASN_P49327_2202_ADEASELACPTPK (UniProt P49327) | -0.0516 | -0.302
23 | FAM83H_Q6ZRV2_57_FLATEGAPDFLCPEELEHVSR (UniProt Q6ZRV2) | 0.0919 | -0.0291
24 | FBXL20_Q96IG2_272_LQSLCASGCSNITDAILNALGQNCPR (UniProt Q96IG2) | 0.0683 | -0.178
25 | FAM98C_Q17RN3_92_ELHCPDR (UniProt Q17RN3) | -0.0843 | -0.0717
26 | FANCL_Q9NW38_251_HPTMLPECFFLGADHVVK (UniProt Q9NW38) | 0.115 | 0.0139
27 | FERMT3_Q86UX7_194_GMPAHFSDSAQTEACYHMLSRPQPPPDPLLLQR (UniProt Q86UX7) | -0.196 | -0.49
28 | FES_P07332_785_LPCPELCPDAVFR (UniProt P07332) | 0.101 | -0.156
29 | FAR2_Q96K12_104_EDMQELLSCTNIIFHCAATVR (UniProt Q96K12) | 0.462 | 0.343
30 | FAM129A_Q9BZQ8_41_QYSVAFCNHVR (UniProt Q9BZQ8) | -0.0808 | -0.117
31 | FECH_P22830_395_ALADLVHSHIQSNELCSK (UniProt P22830) | -0.03 | -0.0606
32 | FBXO9_Q9UK97_220_SLEQLSLVCR (UniProt Q9UK97) | 0.14 | 0.27
33 | FBXL12_Q9NXK8_155_QQDPTVLPLLECIVLDRVPAFR (UniProt Q9NXK8) | -0.0917 | 0.296
34 | FGB_P02675_437_CHAANPNGR (UniProt P02675) | 0.506 | 0.339
35 | FAM160B1_Q5W0V3_460_LIEHCDHISDEISIMTLR (UniProt Q5W0V3) | -0.0338 | -0.242
36 | FAM208A_Q9UK61_538_IAQFLQFSLIQCR (UniProt Q9UK61) | 0.17 | 0.171
37 | FAM160A2_Q8N612_927_NAVYCAVIFPEFLK (UniProt Q8N612) | 0.127 | 0.429
38 | FAR2_Q96K12_111_EDMQELLSCTNIIFHCAATVR (UniProt Q96K12) | 0.285 | 0.135
39 | FASTKD2_Q9NYY8_645_SAYCLGSSHPR (UniProt Q9NYY8) | 0.348 | 0.181
40 | FDFT1_P37268_6_CLGHPEEFYNLVR (UniProt P37268) | -0.139 | -0.148
41 | FDXR_P22570_152_ALEIPGEELPGVCSAR (UniProt P22570) | 0.0997 | -0.114
42 | FAM76B_Q5HYJ3_73+76_PCQYCNIIAAFIGTK (UniProt Q5HYJ3) | -0.358 | 0.0932
